Test results published in patent publication USRE30548E (The Salk Institute for Biological Studies, priority 1979, dated 1981).

Experiment: general procedure: Boc solid-phase peptide synthesis; chloromethylated polystyrene resin (Bio Rad) or hydroxymethyl resin; N,N'-dicyclohexyl carbodiimide
Conditions: whole synthesis, scale 5 grams resin

H-CFFWKTFC-OH (cysteine pairing not given here)
crude mass: 950 mg
